Experimental data reported in PubChem BioAssay AID1347076 (National Center for Advancing Translational Sciences (NCATS), 2019).
Among all 400,000 compounds or so, about 13,000 (3.2%) were called active. The inconclusive results got no clear call from the source; some entries with a clear call stand among them for comparison. The call rests on the fitted dose curve; in most records, active means well fitted cell-killing curve with a large enough effect; inconclusive means small, poorly fitted or top-dose-only effect, or effect the other way; inactive means flat fitted curve, though single readings scatter. A potency beside an inconclusive call is a rough fit, not a confirmed value.

Test: qHTS assay for MDR1-selective chemotherapeutics: Primary screen using the drug-selected MDR subline cells KB-V1; further: nearly all actives have a fitted effect of over 60% in size
Details: KB-V1 MDR cells viability, CellTiter-Glo, 72 h; activity change, negative = cytotoxicity: at 46.1 µM (top of the series)
Outline: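 Cytotoxicity via CellTiter-Glo luminescence after 72 h compound exposure at 37 degrees C. Cells: drug-selected KB-V1 line, DMEM phenol-red free plus 10% FBS. Compounds tested at multiple concentrations; normalized data fitted to concentration-effect curves.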
On the % scale 0 is the no-effect control and ±100 the full control effect; potency means the concentration at half of the fitted maximal effect.

SMILES | Potency | activity change, negative = cytotoxicity
CCc1nnc(NC(=O)c2ccc(-c3ccc(F)cc3)o2)s1 | inconclusive: 29.1 µM [cytotoxic, single point] | 
O=C(/C(=C/O)N=Nc1cccc(C(F)(F)F)c1)c1ccccc1 | inactive | 
CCN1CCN(c2nn3c(=O)c4ccccc4nc3c3ccccc23)CC1 | inconclusive: 32.6 µM [cytotoxic, single point] | 
CCOC(=O)CC1=CCc2c1ccc(OC)c2OC | inconclusive: 32.6 µM [cytotoxic, single point] | 
COCc1ccc(C(=O)N2CCCCC2C(=O)Nc2ccc(-n3nc(C)cc3C)cc2)o1 (stereo unspecified) | inconclusive: 9.2 µM [cytotoxic, partial curve, poor fit] | 
COc1ccc(S(=O)(=O)NCC2CCCN(Cc3ccc(C)o3)C2)cc1 (stereo unspecified) | inconclusive: 9.2 µM [cytotoxic, partial curve] | 
CC(C)(C)n1nnnc1C(c1cc2ccccc2o1)N1CCCCC1 (stereo unspecified) | inconclusive: 8.2 µM [cytotoxic, partial curve] | 
Cc1ccc(C)c(NC(=O)C2(C)CCCN2C(=O)C(C)C)c1 (stereo unspecified) | inactive | 
Cc1ccc2[nH]c(=O)c(CN(CCc3ccccc3)Cc3nnnn3CC3CCCO3)cc2c1 (stereo unspecified) | active: 14.6 µM | 
O=C(CSc1nnc(-c2n[nH]c3ccccc23)n1-c1ccccc1)Nc1cccc(Cl)c1 | active: 7.31 µM | 
c1ccc(OCCSc2nnc3sc4ccccc4n23)cc1 | inconclusive: 14.6 µM [cytotoxic, partial curve] | 
CSc1ncc(Sc2ccccc2)c(C(=O)O)n1 | inactive | 
CCOC(=O)N1CCN(c2cc(N)c([N+](=O)[O-])cc2F)CC1 | active: 23.1 µM | 
COc1cccc(NC(=O)COc2cc(O)c3c(c2)OC(C)(C)CC3=O)c1 | inconclusive: 29.1 µM [cytotoxic, single point] | 
O=C(CCN1C(=O)c2ccccc2C1=O)c1ccccc1 | inactive | 
O=C1COc2ccc(-c3csc(NCCc4ccccc4)n3)cc2N1 | inactive | 
Cc1ccccc1CNC(=O)C(=O)NCC1CCCN1S(=O)(=O)c1ccccc1 (stereo unspecified) | inconclusive: 6.51 µM [cytotoxic, partial curve] | 
CCCn1c(SCC(=O)NC2CCCc3ccccc32)n[nH]c1=O (stereo unspecified) | inconclusive: 29.1 µM [cytotoxic, partial curve, poor fit] | 
CCCNC(=O)Cn1c(=O)n(CC(=O)N2CCCCC2)c(=O)c2sccc21 | inconclusive: 29.1 µM [rising, single point] | 
CCOc1cc(C(=O)NC(C)COC)cc(OCC)c1OCC (stereo unspecified) | inconclusive: 11.6 µM [cytotoxic, partial curve, poor fit] | 
Cc1cccc(NC(=O)c2ccccc2NC(=O)C2CCCCC2)c1C | active: 18.4 µM | 
COc1ccc(-c2nnc(SCC(=O)N3CCC(Cc4ccccc4)CC3)o2)cc1OC | active: 5.17 µM | 
Cc1ccc(-n2[nH]c(C)c(/C=N/Nc3ccc([N+](=O)[O-])cc3[N+](=O)[O-])c2=O)cc1 | active: 16.4 µM | 
COc1ccc(NC(=O)CC(C)c2ccccc2)cc1S(=O)(=O)N1CCOCC1 (stereo unspecified) | inactive | 

As a short view, 2 of the compounds above.
SMILES | Potency | activity change, negative = cytotoxicity
CCCNC(=O)Cn1c(=O)n(CC(=O)N2CCCCC2)c(=O)c2sccc21 | inconclusive: 29.1 µM [rising, single point] | 
CCOc1cc(C(=O)NC(C)COC)cc(OCC)c1OCC (stereo unspecified) | inconclusive: 11.6 µM [cytotoxic, partial curve, poor fit] | 

Some of these compounds in order of length of the SMILES, ascending.
SMILES | Potency | activity change, negative = cytotoxicity
CCCn1c(SCC(=O)NC2CCCc3ccccc32)n[nH]c1=O (stereo unspecified) | inconclusive: 29.1 µM [cytotoxic, partial curve, poor fit] | 
CCN1CCN(c2nn3c(=O)c4ccccc4nc3c3ccccc23)CC1 | inconclusive: 32.6 µM [cytotoxic, single point] | 
O=C(CSc1nnc(-c2n[nH]c3ccccc23)n1-c1ccccc1)Nc1cccc(Cl)c1 | active: 7.31 µM | 

The listing continues.

SMILES | Potency | activity change, negative = cytotoxicity
O=c1cccc(-c2ccc3ccccc3c2)o1 | inactive | 
Cc1ccc(S(=O)(=O)NCC(=O)NCC(=O)N(C)Cc2ccc3ccccc3c2)cc1C | active: 13 µM | 
O=C(CCCC(=O)N1CCCc2ccccc21)N1CCCc2ccccc21 | inconclusive: 25.9 µM [cytotoxic, single point] | 
O=C(CN1CCC(n2nnc3cc(F)ccc32)CC1)NCCc1ccccc1 | inconclusive: 8.2 µM [cytotoxic, partial curve] | 
Cc1cc(C(=O)NCCc2ccccc2)c2cc(F)ccc2n1 | inconclusive: 16.4 µM [cytotoxic, single point] | 
CCC(Sc1nnc2c3ccccc3n(C)c2n1)C(=O)Nc1nnc(C(C)C)s1 (stereo unspecified) | inactive | 
O=[N+]([O-])c1ccc(Cl)cc1NCC1CCCO1 (stereo unspecified) | inactive | 
Cc1cccc(NC(=O)c2onc3c2CCCC3)n1 | active: 13 µM | 
Cc1csc(NC(=S)Nc2cccc(Cl)c2)n1 | inconclusive: 29.1 µM [cytotoxic, single point] | 
Cc1ccc(NC2=C/C(=N/S(=O)(=O)c3cccs3)c3ccccc3C2=O)cc1 | inconclusive: 1.84 µM [cytotoxic, full curve, poor fit] | 
Clc1ccc(CSc2snnc2-c2ccccc2)cc1 | inconclusive: 18.4 µM [cytotoxic, single point] | 
O=S(=O)(/N=C(\c1ccccc1)N1CCOCC1)c1ccc(Cl)cc1 | inactive | 
O=C(O)c1c2c(nc3ccc(S(=O)(=O)N4CCC(C(=O)NCc5ccccc5Cl)CC4)cc13)CCCC2 |  | inconclusive: 27.4%
CCCN(CC(=O)Nc1ccccc1OC)C(=O)c1cccc(S(=O)(=O)NCc2ccccc2)c1 | inconclusive: 14.6 µM [cytotoxic, partial curve] | 
CC(C)(C)C(=O)/C(=C/c1ccncc1)n1cncn1 | inconclusive: 2.91 µM [cytotoxic, partial curve, poor fit] | 
Cc1cc(C)c2nc(SC(C)C#N)cc(C)c2c1 (stereo unspecified) | inconclusive: 29.1 µM [cytotoxic, single point] | 
Oc1ccc(/C(Cc2ccccn2)=N\Nc2ccccc2)c(O)c1 | inconclusive: 20.6 µM [cytotoxic, single point] | 
O=C(Nc1ccccc1F)c1ccc(S(=O)(=O)NCC2CCCO2)cc1 (stereo unspecified) | inconclusive: 29.1 µM [cytotoxic, single point] | 
COC(=O)c1cc2occc2n1CC(=O)Nc1ccc(OC)c(OC)c1OC | inactive | 
CCC(=O)OCCNc1nc(-c2ccccc2)nc2ccccc12 | inconclusive: 29.1 µM [rising, single point] | 
CCCN1CCc2c(sc(NC(=O)c3ccc(S(=O)(=O)N(C)c4ccccc4)cc3)c2C(=O)NC)C1 | inconclusive: 29.1 µM [cytotoxic, single point] | 
O=C1C(=O)N(Cc2cccnc2)C(c2cccc([N+](=O)[O-])c2)/C1=C(\O)c1ccc2c(c1)OCCO2 (stereo unspecified) | inconclusive: 20.6 µM [rising, single point] | 
CN(Cc1cccc(Cl)c1)C(=O)C1CCC(=O)N(C2CC2)C1 (stereo unspecified) | inactive | 
COc1ccc(N2CCN(C(=O)CCc3ccc(S(=O)(=O)NC(C)(C)C)cc3)CC2)cc1 | active: 14.6 µM | 

SMILES | Potency | activity change, negative = cytotoxicity
Cc1oc2ncn(CC(C)C)c(=O)c2c1C(=O)NCCc1ccccc1 | inactive | 
C[C@@H]1Cc2[nH][nH]c(=O)c2[C@H](C)O1 | inconclusive: 25.9 µM [rising, single point] | 
S=C(Nc1ccc(Cl)cc1)NC1CC2CCC(C1)N2Cc1ccccc1 (stereo unspecified) | inconclusive: 25.9 µM [cytotoxic, single point] | 
COC(=O)c1c(-c2c(Cl)cccc2Cl)noc1NC(=O)NN1CCOCC1 | inconclusive: 29.1 µM [rising, single point] | 
COc1ccc(NC(=O)COC(=O)c2ccc(-n3cnnn3)cc2)c([N+](=O)[O-])c1 |  | inconclusive: -7.71%
O=C(C1CC(=O)N(C2CCCC2)C1)N1CCN(c2ccc(F)cc2)CC1 (stereo unspecified) | inconclusive: 20.6 µM [cytotoxic, single point] | 
Oc1ccc(Br)cc1CNc1cccc2cccnc12 | inactive | 
CCS(=O)(=O)n1nc(NCc2cccc(OC)c2)nc1NCc1cccc(OC)c1 | inconclusive: 1.64 µM [cytotoxic, full curve, poor fit] | 
COc1cc(CNCc2ccccn2)ccc1OCc1ccc(Cl)cc1Cl | inconclusive: 16.4 µM [cytotoxic, single point] | 
COc1c(O)ccc2cnn(-c3ccccc3C)c(=O)c12 | inactive | 
Cn1nnnc1Sc1ncnc2scc(-c3cc4ccccc4o3)c12 | inconclusive: 29.1 µM [cytotoxic, single point] | 
COc1ccccc1N(C)S(=O)(=O)c1ccc(C(=O)NCC2CCCCC2)cc1 | inconclusive: 18.4 µM [cytotoxic, single point] | 
COc1cc(C(=O)O/N=C(\N)Cc2ccc([N+](=O)[O-])cc2)cc(OC)c1OC | inconclusive: 8.2 µM [cytotoxic, partial curve, poor fit] | 
CCc1nc2cccnc2n1-c1ccc(CC(=O)Nc2c(C)cccc2C)cc1 | inactive | 
CCOC(=O)CNC(=O)CSc1ncnc2c1cnn2Cc1ccccc1 | inactive | 
O=C(C[n+]1ccccc1Cl)c1ccc(I)cc1 | inconclusive: 29.1 µM [rising, partial curve, poor fit] | 
Cc1ccc(NC(=O)c2cccs2)cc1 | inconclusive: 25.9 µM [cytotoxic, single point] | 
Nc1nn(-c2ccccc2)c(N)c1N=Nc1cccc(F)c1 | inconclusive: 29.1 µM [cytotoxic, partial curve, poor fit] | 
CCc1ccc(NC(=O)CSc2nc3ccccc3c(=O)n2CCCC(=O)N2CCCC2)cc1 | active: 2.91 µM | 
Cc1ccc(S(=O)(=O)N(CC(=O)N=Nc2c(O)[nH]c3ccccc23)c2ccc(C)c(C)c2)cc1 | inconclusive: 18.4 µM [cytotoxic, single point] | 
COc1cc(C)ccc1S(=O)(=O)NC(=O)Cn1nnc(COc2ccc3c(c2)CCCC3)c1C | inconclusive: 5.8 µM [rising, partial curve] | 
Cc1cc(=O)n2[nH]c(N)c(N=Nc3ccccc3F)c2n1 | inconclusive: 16.4 µM [cytotoxic, partial curve] | 
COC(=O)c1cc(OC)c(OC)cc1NC(=O)CSc1nnnn1Cc1ccccc1 | inconclusive: 20.6 µM [cytotoxic, single point] | 
